Results taken from PubChem BioAssay AID504834 (National Center for Advancing Translational Sciences (NCATS), 2011).
Several values for one entry are separate records, joined by “and”; a condition that tells them apart may be missing. Equal values may be shown once. The whole screen tested about 320,000 compounds, of which about 22,000 (6.9%) were called active. The inconclusive results got no clear call from the source; some entries with a clear call stand among them for comparison. Calls come from the whole dose curve; as a rule, active = well fitted inhibition curve with a large enough effect; inconclusive = small, poorly fitted or top-dose-only effect, or another doubt; inactive = no such curve, though single readings can be large or run the other way. Potencies beside an inconclusive call are fits to weak or partial responses and may not hold up.

Experiment: Primary qHTS for delayed death inhibitors of the malarial parasite plastid, 96 hour incubation
Conditions: P. falciparum luciferase reporter growth; series mostly up to 28.7 µM; activity change, negative = inhibition: at the top concentration
Summary of the method: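 Delayed-death screen, second-generation endpoint: infected erythrocytes, 2% hematocrit, 0.05% parasitemia final; 96 hours at 37 C, 5% CO2; luciferase detection reagent; luminescence decrease equals reduced growth.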
% is set by controls: 0 for no effect and ±100 for the full control effect; potency is the fitted concentration of half-maximal effect.

SMILES | activity change, negative = inhibition | Potency
CCN(CC)CCNC(=S)Nc1ccc2nc3n(c(=O)c2c1)CCCCC3 | inactive: 0.828% | –
CCCCc1nc(NCCNC(=O)c2ccccc2)c(C#N)c2c1CSC(C)(C)C2 | – | active: 2.33 µM
O=C(CSc1ccc2nnc(-c3ccncc3)n2n1)Nc1ccc2c(c1)OCCO2 | – | inconclusive: 2.94 µM [inhibitor, partial curve, poor fit]
CCn1cnc2cc(NCc3nc4ccccc4n3C)ccc21 | inactive: 2.64% | –
C=CCSc1nc2ccccc2n1Cc1nnc(-c2cccs2)o1 | – | inconclusive: 18.5 µM [inhibitor, single point]
COC(=O)c1c(NC(=O)C2C3CCC(O3)C2C(=O)O)sc2c1CCCCCC2 (stereo not drawn) | – | inconclusive: 1.47 µM [inhibitor, partial curve]
Cc1cccc(C(=O)Nc2ccc(C(=O)Nc3ccc(O)cc3)cc2)c1 | – | inconclusive: 14.7 µM [inhibitor, partial curve, poor fit]
O=C(CN1C(=O)CCOc2ccccc21)Nc1cccc(S(=O)(=O)N2CCOCC2)c1 | – | inconclusive: 8.28 µM [inhibitor, partial curve, poor fit]
O=C(Nc1ccc(F)cc1F)c1cncc(Br)c1 | inactive: 34% | –
CCCc1ccc2oc(C(=O)N3CCC[C@H]3CO)c(C)c2c1 | – | inconclusive: 11.7 µM [inhibitor, single point]
O=C(NCc1c(O)ccc2ccccc12)c1ccccc1 | – | active: 10.4 µM
CCC(=O)c1ccc(OCC(=O)NCC2COc3ccccc3O2)cc1 (stereo not drawn) | – | inconclusive: 18.5 µM [inhibitor, single point]
NC(=O)c1ccc(NC(=O)CSc2nncn2-c2ccccc2)cc1 | inactive: 17.5% | –
CC(=O)c1cc(-c2ccc(F)cc2)n(CCC(=O)NC(C)(C)C)c1C | – | inconclusive: 10.4 µM [inhibitor, single point]
O=C(CSC1=Nc2ccccc2C2=NC(c3ccccc3)C(=O)N12)NC1CCCCC1 (stereo not drawn) | – | inconclusive: 18.5 µM [inhibitor, single point]
Clc1ccc(CNCc2cccs2)cc1Cl | – | inconclusive: 0.738 µM [inhibitor, partial curve, poor fit]
O=C(NCc1ccccn1)c1ccc(NS(=O)(=O)c2cccc(Cl)c2)cc1 | – | inconclusive: 14.7 µM [inhibitor, partial curve]
CSc1nc(N(C)NC(=O)c2cccc(C)c2)c2ccccc2n1 | – | inconclusive: 0.329 µM [inhibitor, full curve, poor fit]
O=C(c1ccco1)N1CCN(c2nnc(-c3ccccc3)c3ccccc23)CC1 | – | inconclusive: 7.38 µM [inhibitor, partial curve, poor fit]
CCOc1ccc(C(=O)C(c2ccccc2)N2CCOCC2)cc1 (stereo not drawn) | inactive: 267% | –
Cc1cc(C)n2nc(SCc3ccc(C#N)cc3)nc2n1 | – | inconclusive: 8.28 µM [inhibitor, single point]
CCSc1nc2c(cnn2-c2ccc(C)c(C)c2)c(=O)[nH]1 | inactive: -17.9% | –
COc1ccc(-c2csc(N(CCCN3CCOCC3)C(=O)CCl)n2)cc1 | inactive: 68.3% | –
Cc1cccc(C(=O)NC2CCN(CC(=O)N3CCOCC3)CC2)c1 | – | inconclusive: 18.5 µM [inhibitor, single point]
O=C(NCc1ccccc1)c1onc(CS(=O)(=O)c2ccccn2)c1C(=O)NCc1ccccc1 | – | inconclusive: 2.94 µM [inhibitor, single point]

Record cards (already shown). Order of values: activity change, negative = inhibition	Potency
O=C(NCc1ccccn1)c1ccc(NS(=O)(=O)c2cccc(Cl)c2)cc1 in the list: –	inconclusive: 14.7 µM [inhibitor, partial curve]
CCCc1ccc2oc(C(=O)N3CCC[C@H]3CO)c(C)c2c1 in the list: –	inconclusive: 11.7 µM [inhibitor, single point]

The listing continues.

SMILES | activity change, negative = inhibition | Potency
CC1c2nc3ccccc3n2C(CC(=O)NC2CC2)C(=O)N1Cc1ccccc1 (stereo not drawn) | – | inconclusive: 0.657 µM [inhibitor, full curve, poor fit]
COC(=O)C1=C(C)N(Cc2ccccc2)C(=O)N[C@H]1c1ccccc1 | – | inconclusive: 14.7 µM [inhibitor, partial curve, poor fit]
CCOC(=O)C1CCCN(C(=O)c2cn(-c3ccccc3)nc2-c2cccnc2)C1 (stereo not drawn) | – | inconclusive: 16.5 µM [inhibitor, single point]
COc1ccc(/C=N/n2cncn2)cc1COc1ccc(NC(C)=O)cc1 | inactive: 1.31% | –
CC(=O)NC(C)C12CC3CC(CC(C(=O)O)(C3)C1)C2 (stereo not drawn) | – | inconclusive: 8.28 µM [inhibitor, partial curve, poor fit]
CN(C)c1ccc(-c2nnn(CC(=O)NCc3ccc4c(c3)OCO4)n2)cc1 | – | inconclusive: 13.1 µM [inhibitor, partial curve, poor fit]
CCOc1cccc(CN2CCC(Oc3ccc(C(=O)NCc4ccccn4)cc3)CC2)c1 | – | inconclusive: 10.4 µM [inhibitor, single point]
O=C(c1cc(-c2ccc(Cl)cc2)n(-c2ccc(Cl)cc2)n1)N1CCOCC1 | – | inconclusive: 0.0586 µM [inhibitor, full curve, poor fit]
CCOC(=O)c1sc2nc(CN3CCCCC3)nc(Cl)c2c1C | – | inconclusive: 10.4 µM [inhibitor, single point]
O=C(c1cc(COc2ccccc2)on1)N1CCCC(OCc2cccnc2)C1 (stereo not drawn) | – | inconclusive: 10.4 µM [inhibitor, partial curve, poor fit]
Cc1cc2c(N=O)c(NO)ccc2[nH]1 | inactive: 41.5% | –
CCOc1ccc(Nc2oc(-c3ccc(Cl)cc3)nc2C#N)cc1 | inactive: 16% | –
NS(=O)(=O)c1ccc(N/N=C/c2cn(-c3ccccc3)nc2-c2cccs2)c([N+](=O)[O-])c1 | – | active: 3.29 µM
Cc1noc(C)c1-c1csc(N2CCC(C(N)=O)CC2)n1 | inactive: -3.3% | –
O=C(N/N=C/c1ccco1)Nc1ccccc1 | inactive: -13.3% | –
CC(C)(OC(=O)c1ccc(C#N)cc1)c1cc2ccccc2c(=O)o1 | inactive: 24.2% | –
O=C(CCC(=O)N1CCOc2ccc(Cl)cc21)NCCCN1CCN(c2ccccc2F)CC1 | inactive: -23% | –
CCOC(=O)C(=CNc1ccccc1N1CCOCC1)C(=O)OCC | – | inconclusive: 11.7 µM [inhibitor, partial curve]
COc1ccc(/C=N/NC(=O)C(=O)N2CCCCCC2)cc1 | – | inconclusive: 10.4 µM [inhibitor, partial curve, poor fit]
CCN(Cc1ccncc1)C(=O)C(CO)c1ccccc1 (stereo not drawn) | – | inconclusive: 4.26 µM [inhibitor, single point]
O=C(COc1ccccc1Cl)Nc1ccc(NC(=O)c2ccco2)cc1 | inactive: 6.36% | –
CC(C)OCCCn1c(SCC(=O)N2CCc3ccccc32)nc2ccccc2c1=O | – | inconclusive: 3.29 µM [inhibitor, partial curve, poor fit]
COc1ccc(S(=O)(=O)N2CCOCC2)cc1NC(=O)Cc1cccs1 | – | inconclusive: 18.5 µM [inhibitor, single point]
O=C(COc1ccccc1)NC(=S)Nc1cccc([N+](=O)[O-])c1 | – | active: 1.65 µM

SMILES | activity change, negative = inhibition | Potency
CC(=O)Nc1cc(OC(C)=O)c2nonc2c1OC(C)=O | inactive: 5.25% | –
CN(C)C(=O)c1ccc(NC(=O)c2cccc(S(=O)(=O)N3CCCCCC3)c2)cc1 | – | active: 5.22 µM
CCc1ccccc1N(C(=O)c1snc(C(N)=O)c1N)C(C(=O)NCC1CCCO1)c1ccc(C)o1 (stereo not drawn) | – | active: 9.28 µM
Cc1cc(NC(=O)c2ccccc2C)ccc1NC(=O)c1ccccc1Cl | inactive: -30.3% | –
c1ccc(-c2nnc3ccc(N4CCCC4)nn23)cc1 | – | active: 1.04 µM
CC(CCc1ccccc1)NCc1cccc2ccccc12 (stereo not drawn) | – | inconclusive: 2.94 µM [inhibitor, full curve, poor fit]
CC(=O)N1CCN(c2ccnc3cc(Cl)ccc23)CC1 | – | active: 11.7 µM
O=C1NC(=O)N(CCc2ccc(F)cc2)C(=O)/C1=C/c1ccco1 | inactive: -13.4% | –
Cc1ccccc1NC(=O)CSc1ccc(-c2ccco2)nn1 | – | inconclusive: 10.4 µM [inhibitor, single point]
C/C(=N\NC(=S)NC(C)C)c1ccc2c(c1)OCCO2 | inactive: -29% | –
O=C(Nc1ccncc1)Nc1cccc(C(F)(F)F)c1 | – | inconclusive: 18.5 µM [inhibitor, single point]
Cc1nc(C)c(N)c(=O)[nH]1 | – | inconclusive: 10.4 µM [inhibitor, partial curve, poor fit]
COc1cccc(C(=O)NC2=NCCS2)c1OC | – | inconclusive: 11.7 µM [inhibitor, partial curve, poor fit]
S=C(NCCSCc1ccc(Cl)cc1)Nc1ccccc1 | – | inconclusive: 5.22 µM [inhibitor, partial curve, poor fit]
O=C(O)c1ccc(C(=O)C(=O)c2ccccc2)cc1 | inactive: -8.29% | –
Nc1nc(Nc2ccccc2)nc(N2CCCC2)c1[N+](=O)[O-] | inactive: -3.7% | –
Cc1cc(/C=N/NC(=O)c2ccc(CN3CCOCC3)cc2)c(C)n1-c1ccccc1 | inactive: -19.6% | –
O=C(CSc1nnc2ccc(-c3ccc(F)cc3)nn12)N1CCCC1 | – | inconclusive: 18.5 µM [inhibitor, single point]
O=C(NCCc1ccccc1)c1nc2nc(-c3cccs3)cc(C(F)(F)F)n2n1 | – | inconclusive: 9.28 µM [inhibitor, single point]
Cc1ccc(N=Nc2ccc(C)cc2NC(=O)Nc2ccccc2F)cc1 | – | inconclusive: 8.28 µM [inhibitor, partial curve, poor fit]
O=[N+]([O-])c1ccc2nc(C3CCCCC3)[nH]c2c1 | – | inconclusive: 2.94 µM [inhibitor, single point]
CCOc1cc(N2CCOCC2)c(OCC)cc1NC(=O)c1[nH]c(C)c(C(C)=O)c1C | – | inconclusive: 13.1 µM [inhibitor, single point]
CC1CCN(C(=O)c2cc3ccccc3cc2O)CC1 | – | inconclusive: 18.5 µM [inhibitor, single point]
